From article PMC10899406 come the findings set out here.

Chains of the proteins cited; added tags and fusions are not shown.
UniProt P38936: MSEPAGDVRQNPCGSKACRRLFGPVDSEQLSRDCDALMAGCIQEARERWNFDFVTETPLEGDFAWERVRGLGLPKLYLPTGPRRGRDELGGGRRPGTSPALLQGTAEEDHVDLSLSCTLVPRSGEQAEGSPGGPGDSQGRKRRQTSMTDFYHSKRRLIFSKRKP
UniProt Q96S59: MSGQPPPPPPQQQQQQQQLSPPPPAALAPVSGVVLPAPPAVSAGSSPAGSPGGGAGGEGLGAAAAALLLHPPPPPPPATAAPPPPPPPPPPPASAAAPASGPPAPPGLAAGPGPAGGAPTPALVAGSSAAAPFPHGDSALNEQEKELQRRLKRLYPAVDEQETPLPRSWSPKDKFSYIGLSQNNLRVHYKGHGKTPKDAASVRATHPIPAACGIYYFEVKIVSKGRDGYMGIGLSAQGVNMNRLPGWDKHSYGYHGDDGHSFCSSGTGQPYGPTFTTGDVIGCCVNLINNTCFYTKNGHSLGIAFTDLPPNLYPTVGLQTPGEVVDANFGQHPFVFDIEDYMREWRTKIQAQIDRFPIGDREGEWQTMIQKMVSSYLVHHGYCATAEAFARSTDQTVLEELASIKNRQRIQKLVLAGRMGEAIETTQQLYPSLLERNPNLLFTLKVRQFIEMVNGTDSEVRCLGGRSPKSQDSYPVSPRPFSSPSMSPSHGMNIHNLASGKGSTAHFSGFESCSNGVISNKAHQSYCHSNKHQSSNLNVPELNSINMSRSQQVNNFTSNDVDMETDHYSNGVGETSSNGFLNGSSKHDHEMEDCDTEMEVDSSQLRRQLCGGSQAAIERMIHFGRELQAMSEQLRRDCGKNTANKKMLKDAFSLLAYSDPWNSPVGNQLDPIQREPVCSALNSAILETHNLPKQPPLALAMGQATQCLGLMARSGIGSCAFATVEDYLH
UniProt P51784: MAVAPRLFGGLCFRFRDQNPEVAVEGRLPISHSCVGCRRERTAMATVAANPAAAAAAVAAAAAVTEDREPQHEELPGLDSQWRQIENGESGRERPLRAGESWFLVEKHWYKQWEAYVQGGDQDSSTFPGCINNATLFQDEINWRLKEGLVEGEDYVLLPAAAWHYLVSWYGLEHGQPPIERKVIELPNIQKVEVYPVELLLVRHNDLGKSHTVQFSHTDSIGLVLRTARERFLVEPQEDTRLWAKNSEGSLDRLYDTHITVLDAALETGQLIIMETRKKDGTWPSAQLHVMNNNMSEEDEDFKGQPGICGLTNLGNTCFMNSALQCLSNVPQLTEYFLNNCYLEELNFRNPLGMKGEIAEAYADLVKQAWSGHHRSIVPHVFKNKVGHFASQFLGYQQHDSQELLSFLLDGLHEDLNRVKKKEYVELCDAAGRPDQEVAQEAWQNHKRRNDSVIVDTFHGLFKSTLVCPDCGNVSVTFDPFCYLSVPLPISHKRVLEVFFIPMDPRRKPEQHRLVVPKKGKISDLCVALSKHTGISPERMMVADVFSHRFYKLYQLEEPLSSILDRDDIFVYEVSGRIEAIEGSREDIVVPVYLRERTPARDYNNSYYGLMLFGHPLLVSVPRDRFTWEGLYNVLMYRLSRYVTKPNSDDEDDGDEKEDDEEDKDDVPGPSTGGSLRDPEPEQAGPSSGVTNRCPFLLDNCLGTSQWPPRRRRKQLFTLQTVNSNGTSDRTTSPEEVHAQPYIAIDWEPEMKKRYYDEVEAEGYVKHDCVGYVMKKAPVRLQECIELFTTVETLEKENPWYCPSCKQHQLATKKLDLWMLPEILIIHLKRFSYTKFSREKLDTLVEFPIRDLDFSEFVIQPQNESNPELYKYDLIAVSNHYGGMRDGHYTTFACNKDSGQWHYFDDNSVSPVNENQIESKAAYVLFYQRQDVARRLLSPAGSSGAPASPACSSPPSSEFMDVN

Assay [1] addresses Myc-p21 (UniProt P38936). As to the kind of experiment: co-IP; sequential immunoprecipitation: HEK293T co-transfected with Flag-RanBPM, HA-USP11 and Myc-p21, MG132; first anti-Flag M2 agarose and elution with Flag peptides, then anti-Myc or control IgG.
The target of assay [2] is Flag-RanBPM (UniProt Q96S59). The description is as above.
The target of assay [3] is Flag-RanBPM (UniProt Q96S59). As to the kind of experiment: co-IP; HEK293T cells transfected with Flag-RanBPM and/or Myc-p21; precipitation with anti-Flag or anti-Myc antibody.
Assay [4] concerns the target p21 (endogenous, A549 cells) (human (endogenous in A549)) (UniProt P38936). Description: co-IP; endogenous proteins of A549 cell lysates precipitated with anti-p21 or anti-RanBPM antibody, isotype control IgG as control; also after 5 uM Etop or 0.5 uM Dox for 8 h (Fig. 6G-H), and after transfection of RanBPM plasmid or RanBPM siRNAs and MG132 for 6 h (Fig. 4B-C).
The target of assay [5] is RanBPM (endogenous, A549 cells) (human (endogenous in A549)) (UniProt Q96S59). The description is as above.

Results are given in words; binding and its absence hold for the method and conditions named. Binding seen in cells or lysates may run through a third protein. Some binding calls cover weakened binding; strength is not graded here.

In the case of “HA-USP11 (from UniProt P51784 1-963) (enzyme)”, the binding entry in assay [1] and in assay [2] was “binds” each time.

As for Myc-p21 (from UniProt P38936 1-164), the binding entry in assay [3] and in assay [2] was “binds” throughout.

“USP11 (endogenous, A549 cells) (from UniProt P51784 1-963) (enzyme)”: the binding result in assay [4] is reported as “binds”.

For the substance “p21 (endogenous, A549 cells) (from UniProt P38936 1-164)”, the binding result in assay [5] was “binds”.
